Results deposited as PubChem BioAssay AID1259308 (NCATS, 2017)
In all, the deposit lists about 59,000 reagents; below is a random part of them. Over the whole deposit, about 1,510 (2.6%) were called active. 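Calls use total luciferase alone and ignore viability, so some active siRNAs may act by altering cell number.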 Reagents against one gene are numbered here. Not all columns of the deposit are shown. No sequences are given here.

Aim: 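Knock-downs that increase output of a recombinant reporter protein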 (primary screen)
System: human HEK293 embryonic kidney cells stably expressing firefly luciferase (HEK-CMV-Luc2-Hygro)
Knock-down reagent: single siRNA against human genes, 0.8 pmol siRNA per well
Time to read-out: 72 h
Measured: 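Luciferase light (ONE-Glo) measured on one replicate plate set and viability (CellTiter-Glo) on the other, scaled to a negative control siRNA, with robust z-scores and luciferase per cell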
Reading the numbers: total luciferase, z-score: higher = more reporter protein produced
Call rule: 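An siRNA counts as active if its total luciferase robust z-score exceeds 3; genes with two or more such siRNAs out of three were retested with fresh siRNAs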
Calls: active = raised luciferase; inactive = no rise

target gene | reagent no. | total luciferase, z-score | outcome
MON1B (MON1 vesicular trafficking associated B) | 1 | 3.08 | active
MON1B (MON1 vesicular trafficking associated B) | 2 | -0.235 | inactive
MON1B (MON1 vesicular trafficking associated B) | 3 | -0.12 | inactive
BPIFB2 (BPI fold containing family B member 2) | 1 | 0.462 | inactive
BPIFB2 (BPI fold containing family B member 2) | 2 | 1.49 | inactive
BPIFB2 (BPI fold containing family B member 2) | 3 | -1.19 | inactive
TTC29 (tetratricopeptide repeat domain 29) | 1 | -1.61 | inactive
TTC29 (tetratricopeptide repeat domain 29) | 2 | 0.329 | inactive
TTC29 (tetratricopeptide repeat domain 29) | 3 | -0.554 | inactive
PPA1 (inorganic pyrophosphatase 1) | 1 | -0.359 | inactive
PPA1 (inorganic pyrophosphatase 1) | 2 | -0.502 | inactive
PPA1 (inorganic pyrophosphatase 1) | 3 | 0.357 | inactive
H4C13 (H4 clustered histone 13) | 1 | -0.485 | inactive
H4C13 (H4 clustered histone 13) | 2 | -0.883 | inactive
H4C13 (H4 clustered histone 13) | 3 | -0.605 | inactive
ZFC3H1 (zinc finger C3H1-type containing) | 1 | 0.767 | inactive
ZFC3H1 (zinc finger C3H1-type containing) | 2 | 0.906 | inactive
ZFC3H1 (zinc finger C3H1-type containing) | 3 | -0.481 | inactive
ATP8B3 (ATPase phospholipid transporting 8B3) | 1 | -0.615 | inactive
ATP8B3 (ATPase phospholipid transporting 8B3) | 2 | 1.27 | inactive
ATP8B3 (ATPase phospholipid transporting 8B3) | 3 | -0.0199 | inactive

Not a retest: an excerpt of the list.
target gene | reagent no. | total luciferase, z-score | outcome
TTC29 (tetratricopeptide repeat domain 29) | 2 | 0.329 | inactive
TTC29 (tetratricopeptide repeat domain 29) | 3 | -0.554 | inactive
PPA1 (inorganic pyrophosphatase 1) | 1 | -0.359 | inactive

Further results follow.
target gene | reagent no. | total luciferase, z-score | outcome
CRX (cone-rod homeobox) | 1 | -1.53 | inactive
CRX (cone-rod homeobox) | 2 | 0.34 | inactive
CRX (cone-rod homeobox) | 3 | -0.28 | inactive
IER5 (immediate early response 5) | 1 | -0.333 | inactive
IER5 (immediate early response 5) | 2 | 0.549 | inactive
IER5 (immediate early response 5) | 3 | 0.141 | inactive
LOC642249 (ankyrin repeat domain 57 pseudogene) | 1 | -1.63 | inactive
LOC642249 (ankyrin repeat domain 57 pseudogene) | 2 | 2.07 | inactive
LOC642249 (ankyrin repeat domain 57 pseudogene) | 3 | 1.13 | inactive
CBLL2 (Cbl proto-oncogene like 2) | 1 | -1.07 | inactive
CBLL2 (Cbl proto-oncogene like 2) | 2 | 0.844 | inactive
CBLL2 (Cbl proto-oncogene like 2) | 3 | 0.67 | inactive
CRYBB1 (crystallin beta B1) | 1 | -0.0449 | inactive
CRYBB1 (crystallin beta B1) | 2 | -0.328 | inactive
CRYBB1 (crystallin beta B1) | 3 | -1.12 | inactive
GPC6 (glypican 6) | 1 | 0.264 | inactive
GPC6 (glypican 6) | 2 | 0.788 | inactive
GPC6 (glypican 6) | 3 | -1.55 | inactive
